From the supplement of paper PMC6411743
± gives the standard deviation of the averaged measurements. Only a part is listed here, and it is no random draw.

Amino acid sequences for entries named in this document (tags omitted). A change or cut given only in a name is not applied to a line headed by its entry.
UniProt P30414: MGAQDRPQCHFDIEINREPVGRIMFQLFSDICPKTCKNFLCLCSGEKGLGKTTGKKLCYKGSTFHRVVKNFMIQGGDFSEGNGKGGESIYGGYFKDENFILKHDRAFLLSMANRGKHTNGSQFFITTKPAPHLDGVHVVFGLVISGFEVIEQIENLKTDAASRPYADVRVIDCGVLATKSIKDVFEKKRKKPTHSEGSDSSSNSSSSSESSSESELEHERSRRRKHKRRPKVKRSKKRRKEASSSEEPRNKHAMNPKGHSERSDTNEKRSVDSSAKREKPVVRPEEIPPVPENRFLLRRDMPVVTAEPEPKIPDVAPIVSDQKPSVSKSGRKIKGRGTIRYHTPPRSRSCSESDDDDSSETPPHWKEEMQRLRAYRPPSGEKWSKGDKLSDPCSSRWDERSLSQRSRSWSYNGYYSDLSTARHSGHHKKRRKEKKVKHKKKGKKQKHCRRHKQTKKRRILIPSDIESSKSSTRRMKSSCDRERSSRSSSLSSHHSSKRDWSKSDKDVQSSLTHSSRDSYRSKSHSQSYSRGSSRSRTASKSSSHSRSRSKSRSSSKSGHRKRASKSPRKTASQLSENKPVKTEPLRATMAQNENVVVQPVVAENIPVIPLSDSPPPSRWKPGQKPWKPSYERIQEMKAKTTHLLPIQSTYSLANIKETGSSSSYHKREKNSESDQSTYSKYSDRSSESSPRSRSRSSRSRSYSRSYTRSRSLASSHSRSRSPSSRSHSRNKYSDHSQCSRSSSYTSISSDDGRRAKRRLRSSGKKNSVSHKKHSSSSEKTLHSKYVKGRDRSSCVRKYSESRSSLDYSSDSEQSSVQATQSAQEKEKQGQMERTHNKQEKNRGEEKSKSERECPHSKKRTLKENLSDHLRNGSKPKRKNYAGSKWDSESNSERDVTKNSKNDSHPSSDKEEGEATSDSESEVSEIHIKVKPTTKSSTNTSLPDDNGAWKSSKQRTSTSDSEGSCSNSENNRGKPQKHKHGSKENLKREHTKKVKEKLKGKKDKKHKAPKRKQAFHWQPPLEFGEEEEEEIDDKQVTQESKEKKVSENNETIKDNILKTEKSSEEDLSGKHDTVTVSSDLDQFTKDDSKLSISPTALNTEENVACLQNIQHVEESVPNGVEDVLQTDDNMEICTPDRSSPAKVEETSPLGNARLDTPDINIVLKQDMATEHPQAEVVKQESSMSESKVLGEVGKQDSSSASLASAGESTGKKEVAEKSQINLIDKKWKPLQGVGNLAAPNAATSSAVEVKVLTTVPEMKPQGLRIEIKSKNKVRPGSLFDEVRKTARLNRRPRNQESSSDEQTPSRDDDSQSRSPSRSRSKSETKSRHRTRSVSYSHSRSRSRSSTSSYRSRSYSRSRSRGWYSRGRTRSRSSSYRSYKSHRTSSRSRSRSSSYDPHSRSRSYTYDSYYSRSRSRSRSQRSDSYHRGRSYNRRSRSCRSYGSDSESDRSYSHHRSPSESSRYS
UniProt Q14160: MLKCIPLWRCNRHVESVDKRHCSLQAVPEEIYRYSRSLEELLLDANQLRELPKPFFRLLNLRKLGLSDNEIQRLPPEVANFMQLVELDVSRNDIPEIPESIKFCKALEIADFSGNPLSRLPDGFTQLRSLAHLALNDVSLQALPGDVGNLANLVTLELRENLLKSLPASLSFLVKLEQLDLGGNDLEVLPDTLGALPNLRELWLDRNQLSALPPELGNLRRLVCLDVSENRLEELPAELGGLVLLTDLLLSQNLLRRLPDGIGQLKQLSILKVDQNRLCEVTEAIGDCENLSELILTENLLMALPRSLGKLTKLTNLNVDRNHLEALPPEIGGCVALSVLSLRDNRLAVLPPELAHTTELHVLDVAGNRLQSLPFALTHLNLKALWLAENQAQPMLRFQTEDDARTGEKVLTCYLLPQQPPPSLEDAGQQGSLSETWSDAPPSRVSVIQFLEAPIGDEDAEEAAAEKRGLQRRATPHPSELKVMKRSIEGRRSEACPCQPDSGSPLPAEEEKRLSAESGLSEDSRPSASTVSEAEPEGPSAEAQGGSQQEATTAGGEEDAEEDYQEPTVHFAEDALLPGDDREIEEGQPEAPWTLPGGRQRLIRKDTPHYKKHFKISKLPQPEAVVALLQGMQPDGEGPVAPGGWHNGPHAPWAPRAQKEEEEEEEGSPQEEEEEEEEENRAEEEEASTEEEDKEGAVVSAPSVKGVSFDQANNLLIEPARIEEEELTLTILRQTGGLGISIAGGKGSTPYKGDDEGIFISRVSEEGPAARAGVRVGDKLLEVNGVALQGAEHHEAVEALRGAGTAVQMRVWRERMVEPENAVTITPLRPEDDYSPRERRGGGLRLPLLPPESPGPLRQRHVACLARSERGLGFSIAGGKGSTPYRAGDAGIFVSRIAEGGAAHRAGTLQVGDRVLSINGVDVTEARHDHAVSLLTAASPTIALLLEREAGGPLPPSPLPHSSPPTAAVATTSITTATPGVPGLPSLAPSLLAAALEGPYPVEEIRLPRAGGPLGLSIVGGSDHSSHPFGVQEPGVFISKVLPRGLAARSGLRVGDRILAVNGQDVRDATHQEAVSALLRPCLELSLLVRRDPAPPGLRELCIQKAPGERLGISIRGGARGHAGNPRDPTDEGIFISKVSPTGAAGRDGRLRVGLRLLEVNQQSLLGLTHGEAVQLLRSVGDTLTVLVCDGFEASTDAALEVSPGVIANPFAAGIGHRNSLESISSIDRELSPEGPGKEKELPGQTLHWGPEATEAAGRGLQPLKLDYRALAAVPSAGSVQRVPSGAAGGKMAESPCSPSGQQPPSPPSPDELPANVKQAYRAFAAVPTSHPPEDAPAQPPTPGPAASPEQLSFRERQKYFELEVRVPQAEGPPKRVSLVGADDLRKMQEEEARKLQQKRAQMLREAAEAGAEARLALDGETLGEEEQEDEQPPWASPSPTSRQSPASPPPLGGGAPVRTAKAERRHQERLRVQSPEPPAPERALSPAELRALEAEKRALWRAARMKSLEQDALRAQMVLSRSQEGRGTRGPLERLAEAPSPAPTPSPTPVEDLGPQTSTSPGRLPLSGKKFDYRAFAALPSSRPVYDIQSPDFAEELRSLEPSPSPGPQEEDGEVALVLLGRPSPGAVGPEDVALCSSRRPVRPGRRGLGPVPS
UniProt Q7Z3E5: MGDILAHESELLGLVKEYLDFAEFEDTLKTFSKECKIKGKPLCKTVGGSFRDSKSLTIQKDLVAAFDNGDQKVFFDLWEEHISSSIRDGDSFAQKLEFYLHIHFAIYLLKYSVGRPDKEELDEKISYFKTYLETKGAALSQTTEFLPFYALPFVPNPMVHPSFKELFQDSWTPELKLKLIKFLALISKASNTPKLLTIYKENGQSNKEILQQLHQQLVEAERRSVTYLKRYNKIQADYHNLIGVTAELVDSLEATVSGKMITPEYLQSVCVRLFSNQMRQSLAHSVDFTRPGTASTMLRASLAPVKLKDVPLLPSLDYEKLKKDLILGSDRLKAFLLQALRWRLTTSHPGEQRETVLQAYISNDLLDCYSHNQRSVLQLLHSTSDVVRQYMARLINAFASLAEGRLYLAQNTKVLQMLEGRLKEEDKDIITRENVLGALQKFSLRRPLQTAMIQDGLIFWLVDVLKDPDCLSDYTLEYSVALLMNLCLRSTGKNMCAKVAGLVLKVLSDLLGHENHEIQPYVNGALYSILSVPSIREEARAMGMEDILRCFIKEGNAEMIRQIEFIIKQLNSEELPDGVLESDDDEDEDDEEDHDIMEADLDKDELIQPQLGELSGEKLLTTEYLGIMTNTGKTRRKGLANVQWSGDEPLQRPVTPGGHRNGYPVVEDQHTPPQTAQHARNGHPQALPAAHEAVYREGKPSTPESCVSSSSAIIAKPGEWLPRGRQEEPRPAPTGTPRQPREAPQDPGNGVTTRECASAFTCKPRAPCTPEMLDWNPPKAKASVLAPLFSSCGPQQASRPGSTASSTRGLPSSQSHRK
UniProt Q7Z478: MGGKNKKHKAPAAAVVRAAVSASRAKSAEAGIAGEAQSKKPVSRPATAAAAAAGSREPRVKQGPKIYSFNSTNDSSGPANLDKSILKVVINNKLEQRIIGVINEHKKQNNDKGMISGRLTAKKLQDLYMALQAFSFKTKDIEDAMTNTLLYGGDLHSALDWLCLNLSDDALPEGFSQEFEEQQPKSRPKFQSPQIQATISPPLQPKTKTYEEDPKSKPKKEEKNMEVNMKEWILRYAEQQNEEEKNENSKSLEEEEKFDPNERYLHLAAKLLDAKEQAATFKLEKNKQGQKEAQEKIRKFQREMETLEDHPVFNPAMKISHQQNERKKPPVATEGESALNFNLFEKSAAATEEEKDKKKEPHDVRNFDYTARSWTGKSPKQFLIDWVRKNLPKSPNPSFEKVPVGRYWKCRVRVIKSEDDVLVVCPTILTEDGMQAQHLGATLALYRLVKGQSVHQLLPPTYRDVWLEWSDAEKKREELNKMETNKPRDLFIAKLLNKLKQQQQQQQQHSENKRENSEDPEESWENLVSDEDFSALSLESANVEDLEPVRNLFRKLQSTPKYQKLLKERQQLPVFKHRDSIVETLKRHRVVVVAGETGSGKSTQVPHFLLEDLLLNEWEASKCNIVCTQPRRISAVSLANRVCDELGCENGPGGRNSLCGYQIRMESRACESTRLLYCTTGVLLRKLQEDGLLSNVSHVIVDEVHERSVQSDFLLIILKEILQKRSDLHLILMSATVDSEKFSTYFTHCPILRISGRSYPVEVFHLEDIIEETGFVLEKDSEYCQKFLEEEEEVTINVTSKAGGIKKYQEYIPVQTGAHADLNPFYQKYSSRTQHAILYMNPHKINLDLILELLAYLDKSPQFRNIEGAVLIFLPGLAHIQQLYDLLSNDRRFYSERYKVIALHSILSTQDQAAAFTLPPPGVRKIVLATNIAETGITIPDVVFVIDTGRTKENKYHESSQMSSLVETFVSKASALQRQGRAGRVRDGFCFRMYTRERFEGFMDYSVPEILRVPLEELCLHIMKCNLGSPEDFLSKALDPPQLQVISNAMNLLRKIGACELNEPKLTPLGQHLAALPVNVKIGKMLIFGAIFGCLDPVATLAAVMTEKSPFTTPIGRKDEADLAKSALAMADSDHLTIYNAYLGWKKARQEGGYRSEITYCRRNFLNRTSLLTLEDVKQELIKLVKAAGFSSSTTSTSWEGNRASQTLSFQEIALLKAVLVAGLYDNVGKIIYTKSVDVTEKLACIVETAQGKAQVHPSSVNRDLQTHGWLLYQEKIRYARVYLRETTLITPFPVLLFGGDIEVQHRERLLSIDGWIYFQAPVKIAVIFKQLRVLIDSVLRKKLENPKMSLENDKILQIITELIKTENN
UniProt Q9Y2D4: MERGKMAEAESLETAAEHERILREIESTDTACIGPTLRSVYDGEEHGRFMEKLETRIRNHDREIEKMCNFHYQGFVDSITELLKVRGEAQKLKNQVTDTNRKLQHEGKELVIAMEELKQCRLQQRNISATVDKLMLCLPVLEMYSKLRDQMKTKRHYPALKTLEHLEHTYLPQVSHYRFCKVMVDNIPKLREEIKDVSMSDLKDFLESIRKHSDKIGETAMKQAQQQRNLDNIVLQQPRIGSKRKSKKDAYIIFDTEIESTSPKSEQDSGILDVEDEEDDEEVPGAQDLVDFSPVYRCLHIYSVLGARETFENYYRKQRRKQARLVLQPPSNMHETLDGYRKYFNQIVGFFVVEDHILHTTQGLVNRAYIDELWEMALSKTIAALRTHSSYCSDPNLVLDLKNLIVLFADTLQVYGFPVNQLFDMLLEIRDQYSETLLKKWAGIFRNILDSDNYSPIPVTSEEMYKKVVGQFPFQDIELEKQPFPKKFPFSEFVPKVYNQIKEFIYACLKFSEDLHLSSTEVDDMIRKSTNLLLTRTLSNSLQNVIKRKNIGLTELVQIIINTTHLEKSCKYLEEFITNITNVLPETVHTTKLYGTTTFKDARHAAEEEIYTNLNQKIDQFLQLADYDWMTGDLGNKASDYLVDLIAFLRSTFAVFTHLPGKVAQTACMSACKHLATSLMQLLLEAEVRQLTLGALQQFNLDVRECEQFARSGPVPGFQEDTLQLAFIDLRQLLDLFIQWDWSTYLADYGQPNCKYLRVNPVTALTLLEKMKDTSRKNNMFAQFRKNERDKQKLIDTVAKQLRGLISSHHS
UniProt Q6UWZ7: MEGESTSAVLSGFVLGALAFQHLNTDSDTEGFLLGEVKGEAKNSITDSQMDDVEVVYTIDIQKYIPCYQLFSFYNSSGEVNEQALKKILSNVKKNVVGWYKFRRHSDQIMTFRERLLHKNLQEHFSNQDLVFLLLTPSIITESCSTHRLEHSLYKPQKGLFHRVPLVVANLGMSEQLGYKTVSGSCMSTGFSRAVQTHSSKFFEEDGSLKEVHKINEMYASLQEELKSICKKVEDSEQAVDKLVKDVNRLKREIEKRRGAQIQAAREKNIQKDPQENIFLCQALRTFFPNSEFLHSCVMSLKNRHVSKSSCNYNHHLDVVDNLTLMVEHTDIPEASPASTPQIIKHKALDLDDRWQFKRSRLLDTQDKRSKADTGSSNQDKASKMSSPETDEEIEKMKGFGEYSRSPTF

Compound: Nc1ncnc2c1ncn2[C@@H]1O[C@H](COP(=O)(O)OP(=O)(O)NP(=O)(O)O)[C@@H](O)[C@H]1O [adenylyl imidodiphosphate]
Assay: NP40-soluble protein abundance relative to vehicle (solubility fold change) (ratio); higher = more soluble protein in presence of AMP-PNP
In short: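 Each value is a fold change relative to the detergent-processed vehicle, calculated per replicate from vsn-normalised intensities. Jurkat crude lysate received eight concentrations (0.1 to 10 mM) for 10 min at room temperature and 3 min at 37 °C, then was solubilised in 0.8% NP40 with benzonase (60 min, 4 °C). The ultracentrifuged supernatant was TMT-labelled and run by LC-MS/MS in three independent experiments.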

Target	NP40-soluble protein abundance (concentration: 1mM)	NP40-soluble protein abundance (concentration: 2mM)	NP40-soluble protein abundance (concentration: 4mM)	NP40-soluble protein abundance (concentration: 6mM)	NP40-soluble protein abundance (concentration: 8mM)	NP40-soluble protein abundance (concentration: 10mM)
A0A087WYW3|P30414 (UniProt P30414)	1.034 ± 0.0047	1.05 ± 0.052	1.08 ± 0.05	1.109 ± 0.011	1.11 ± 0.026	1.14 ± 0.036
UniProt A0MZ66 and related entries	1.03 ± 0.033	1.09 ± 0.065	1.03 ± 0.046	0.987 ± 0.01	0.968 ± 0.033	0.979 ± 0.05
A0A0U1RRB3|Q8IYT2 (UniProt Q8IYT2)	1.01 ± 0.032	0.949 ± 0.07	0.968 ± 0.041	0.96 ± 0.019	0.972 ± 0.04	0.926 ± 0.0076
A0A0A0MRU0|A0A0C4DH75|A0A0D9SFF8|B4DZ84 and related entries (UniProt Q14168)	0.966 ± 0.015	0.948 ± 0.021	0.979 ± 0.032	0.967 ± 0.011	0.991 ± 0.054	0.944 ± 0.018
A0A087X1G7|A0A0B4J1S4|O60613 (UniProt O60613)	1.02 ± 0.022	1.02 ± 0.02	1 ± 0.013	1.01 ± 0.014	1 ± 0.028	1.003 ± 0.0065
A0A0G2JPP5|Q14160-3|A0A0G2JNZ2|Q14160 (UniProt Q14160)	1.01 ± 0.011	1.03 ± 0.05	1.03 ± 0.012	0.9924 ± 0.0092	0.971 ± 0.015	0.985 ± 0.018
A0A096LPI6|A0A0B4J2D5|P30042 (UniProt P30042)	0.991 ± 0.017	1.05 ± 0.022	0.9549 ± 0.0053	0.988 ± 0.022	0.952 ± 0.031	0.9411 ± 0.007
A0A0C4DG78|M0R3C6 and related entries (UniProt Q8TBC5)	1 ± 0.012	1.02 ± 0.03	0.984 ± 0.028	1.016 ± 0.003	1.002 ± 0.0089	1.02 ± 0.011
A0A0D9SF28|F5GXV7 and related entries (UniProt Q8NFP9)	0.985 ± 0.023	0.958 ± 0.082	0.984 ± 0.083	0.983 ± 0.071	0.976 ± 0.057	0.976 ± 0.062
A0A0A0MQR2|Q9BY42 (UniProt Q9BY42)	1.04 ± 0.022	1.06 ± 0.077	1.03 ± 0.028	1.03 ± 0.02	1 ± 0.033	1.03 ± 0.07
A0A087X0Q1|Q7Z739 (UniProt Q7Z739)	1.04 ± 0.053	1.05 ± 0.059	1.05 ± 0.047	1.03 ± 0.034	1.01 ± 0.044	1.03 ± 0.029
A0A0D9SGJ6|J3KQV8 and related entries (UniProt O43426)	0.998 ± 0.046	1.02 ± 0.045	1.04 ± 0.059	0.995 ± 0.061	1.01 ± 0.07	1.02 ± 0.05
A0A0U1RQK7|A0A0A0MSA7|O43432 and related entries (UniProt O43432)	1.007 ± 0.0043	1.017 ± 0.0077	1.02 ± 0.014	1.02 ± 0.063	1.02 ± 0.058	1.01 ± 0.054
A0A0A0MS41|Q9BWM7 (UniProt Q9BWM7)	1.01 ± 0.017	0.957 ± 0.051	0.9957 ± 0.0075	0.9947 ± 0.009	0.994 ± 0.017	1.007 ± 0.0074
A0A0C4DGH3|Q9Y6R0 (UniProt Q9Y6R0)	0.976 ± 0.069	0.973 ± 0.072	0.997 ± 0.015	0.992 ± 0.052	1.01 ± 0.0056	1.08 ± 0.04
A0A0A0MQS0|A8MW92 and related entries (UniProt A8MW92)	0.995 ± 0.044	1.11 ± 0.088	1.1 ± 0.041	1.15 ± 0.036	1.17 ± 0.081	1.26 ± 0.019
A0A140T998|P28062 and related entries (UniProt X5D2R7+Q5JNW7+P28062)	0.946 ± 0.041	0.899 ± 0.078	0.904 ± 0.08	0.915 ± 0.065	0.934 ± 0.11	0.934 ± 0.13
A0A0A0MTH9|O14981 (UniProt O14981)	1.01 ± 0.025	0.988 ± 0.04	1.01 ± 0.028	0.965 ± 0.027	0.965 ± 0.014	0.969 ± 0.019
A0A087X1I8|Q7Z3E5 and related entries (UniProt Q7Z3E5)	0.978 ± 0.035	0.95 ± 0.068	0.964 ± 0.021	0.963 ± 0.033	0.973 ± 0.015	0.954 ± 0.015
A0A0A0MTD9|A0A0A0MTE6|A0A0B4J1S7|E9PMT0 and related entries (UniProt Q9Y2R2)	1.016 ± 0.0078	1.05 ± 0.064	1.01 ± 0.024	0.995 ± 0.017	0.973 ± 0.014	1.01 ± 0.017
A0A087WWS1|Q96FV9 (UniProt Q96FV9)	1.35 ± 0.15	1.52 ± 0.22	1.64 ± 0.29	1.86 ± 0.46	1.96 ± 0.56	2.2 ± 0.76
UniProt A0FGR8-2|H7BXI1	0.986 ± 0.023	0.925 ± 0.07	0.983 ± 0.022	0.988 ± 0.042	1.01 ± 0.044	1 ± 0.048
A0A087WYN9|Q7Z478 (UniProt Q7Z478)	1.31 ± 0.067	1.49 ± 0.079	1.73 ± 0.18	1.9 ± 0.22	2.01 ± 0.24	2.1 ± 0.29
A0A0B4J2A0|Q9UHJ6 (UniProt Q9UHJ6)	1.022 ± 0.009	1.04 ± 0.078	1.05 ± 0.015	0.977 ± 0.023	0.984 ± 0.015	0.999 ± 0.025
A0A0A0MTR7|A0A0A0MTC1|Q63HN8 and related entries (UniProt Q63HN8)	0.955 ± 0.037	0.9 ± 0.082	0.9838 ± 0.0042	0.959 ± 0.03	1 ± 0.058	0.952 ± 0.065
A0A0U1RRB6|Q9Y2D4 (UniProt Q9Y2D4)	1.01 ± 0.026	1.002 ± 0.0044	1.032 ± 0.0094	0.967 ± 0.02	0.982 ± 0.028	1 ± 0.045
A0A087WXI1|Q6NVY1 (UniProt Q6NVY1)	1.01 ± 0.016	0.967 ± 0.037	0.971 ± 0.019	0.9685 ± 0.0074	0.991 ± 0.019	0.955 ± 0.02
A0A087WW88|Q9UQN3 (UniProt Q9UQN3)	1.03 ± 0.024	1.03 ± 0.0098	1.03 ± 0.03	1.04 ± 0.018	1.03 ± 0.042	1.03 ± 0.014
A0A087WXK1|D6REL5 and related entries (UniProt Q6UWZ7)	0.992 ± 0.011	0.998 ± 0.014	1.01 ± 0.021	1 ± 0.053	1.01 ± 0.031	0.968 ± 0.015

Two entries drawn at random from the list so far, as already listed:
Target	NP40-soluble protein abundance (concentration: 1mM)	NP40-soluble protein abundance (concentration: 2mM)	NP40-soluble protein abundance (concentration: 4mM)	NP40-soluble protein abundance (concentration: 6mM)	NP40-soluble protein abundance (concentration: 8mM)	NP40-soluble protein abundance (concentration: 10mM)
A0A087WYW3|P30414 (UniProt P30414)	1.034 ± 0.0047	1.05 ± 0.052	1.08 ± 0.05	1.109 ± 0.011	1.11 ± 0.026	1.14 ± 0.036
A0A0U1RRB6|Q9Y2D4 (UniProt Q9Y2D4)	1.01 ± 0.026	1.002 ± 0.0044	1.032 ± 0.0094	0.967 ± 0.02	0.982 ± 0.028	1 ± 0.045
